Where “and” joins values, the source holds several entries; their conditions need not be identical. Identical values can stand only once. Listed are the inconclusive results; actives and inactives stand elsewhere.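 The calls were made as follows: active = compounds with a fitted half-maximal inhibitory dose at or below ten times their top tested dose; inconclusive = flat curve at 30 to 70% inhibition, or poor fit; inactive = the rest.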
Experiment: fluconazole resistance reversal in C. albicans, dose response, CaCi-2 strain, Alamar Blue, dry powder, set 4 (AID 488943)
Conditions: C. albicans CaCi-2 (fluconazole-resistant clinical isolate) + fluconazole, Alamar Blue growth, 48 h; at 6 µM (top of the series)

## O=C(c1ccc(Cl)cc1)N1CCN(c2ccccn2)CC1
  activity change, negative = inhibition: inconclusive: -49.5% and inconclusive: -41.6%

Source: PubChem BioAssay AID488943 (Broad Institute, 2010)
